# PubChem BioAssay AID1043 (National Center for Advancing Translational Sciences (NCATS), 2008)
# Inconclusive means that the source gave no clear call. Such entries were picked first, then a sample of the others. Where a call stands in place of a potency, no number is given. A potency beside an inconclusive call is a rough fit, not a confirmed value. Active and inactive are the calls of the source. The call rests on the fitted dose curve.
# Assay: H358 Cell Viability Secondary Assay for qHTS Assay for Epigenetic Modulators
# Conditions: H358 NSCLC viability, MTS absorbance, 4 days
# From the text: NIH Molecular Libraries Screening Centers Network [MLSCN] NIH Chemical Genomics Center [NCGC] MLSCN Grant: 1 X01 MH079860-01 Assay Provider: Elisabeth D. Martinez, University of Texas SW Medical Center NCGC Assay Overview: This secondary assay characterizes selected actives identified in the qHTS of the Locus Derepression (LDR) assay (PubChem AID 597). The LDR assay detects the derepression of a GFP reporter that is stably integrated in a region of the genome of murine c127i mammary cells that is presumably silenced. Compounds that cause derepression of the locus to express GFP are identified by enumerating GFP positive cells using a laser-scanning microplate cytometer. Selected LDR actives were assayed for killing of H358 non-small cell lung carcinoma (NSCLC) cells. Certain epigenetic drugs, like histone deacetylase inhibitors, can block cancer cell growth. H358 cell viability was measured using Cell Titer 96 AQueous One (Promega), an assay which detects the ability of metabolically active cells to reduce a tetrazolium salt substrate (MTS), into a soluble formazan product that can be measured by colorimetry.
# NCGC Assay Protocol Summary Viability assays: H358 cells were plated in 96-well flat bottom tissue culture dishes (Corning) and grown overnight at 37 C and 5% CO2, then treated with increasing concentrations of compounds, incubated for four days, and assayed for viability using the Cell Titer 96 AQueous One kit (Promega) according to the manufacturer's protocol. Absorbance at 490 nm and 650 nm (reference) was measured by a Spectra Max (Molecular Devices). Data were normalized to the untreated control (100% viability). Each cell line was tested in one or two independent assays, each containing 4 or 8 replicates. For further details, see R.L. Johnson, W. Huang, A. Jadhav, C.P. Austin, J. Inglese, E.D. Martinez, A Quantitative High-Throughput Screen Identifies Potential Epigenetic Modulators of Gene Expression, Analytical Biochemistry (2007), doi: 10.1016/j.ab.2007.12.028
SMILES,outcome,Potency
CN1C(=S)SC(c2ccccc2)N(C)C1c1ccccc1 (centres undefined),inactive,
O=C(CSc1cccc2cccnc12)N1CCCC1,,inconclusive: 20 µM
O=C(CSc1cccc2cccnc12)NCc1ccccc1,inactive,
Nc1ncn([C@H]2C[C@H](O)[C@@H](CO)O2)c(=O)n1,,inconclusive: 10 µM
